Measured values as given in PubChem BioAssay AID493200 (National Center for Advancing Translational Sciences (NCATS), 2011).
Inconclusive means that the source gave no clear call. Such entries were picked first, then a sample of the others. Potencies of inconclusive entries are doubtful fits and often do not repeat. Activity calls are given as the source filed them. The call rests on the fitted dose curve; in most records, active means well fitted activation curve with a large enough effect; inconclusive means small, poorly fitted or top-dose-only effect; inactive means no such curve, though single readings can be large or run the other way.

assay: qHTS Assay for Rab9 Promoter Activators: Initial hit validation from the primary screen; conditions: Huh7 Rab9 promoter luciferase reporter, 24 h
Text: NIH Chemical Genomics Center [NCGC] NIH Molecular Libraries Probe Production centers Network [MLPCN] MLPCN Grant: MH089537-01 Assay Submitter (PI): Yiannis A. Ioannou NCGC Assay Overview: Niemann Pick Type C (NPC) is a rare neurodegenerative lipidosis that is characterized by lipid storage in the endosomal/lysosomal system. Treatment modalities for this devastating disease are currently non-existent due to the severe obstacles associated with accessing the central nervous system with proteins or genes (Ioannou, 2000). We have developed a new paradigm, termed "Orphan Receptor Bypass Therapy" (ORByT), to address these disorders. This paradigm posits the existence of endogenous "suppressor" proteins whose expression can dramatically improve LSD pathogenesis. The goal is the identification/discovery of small chemical compounds that can modulate the expression of these proteins and provide a new treatment modality for these devastating disorders. One such protein whose overexpression reverses aspects of the NPC phenotype is Rab9. We have developed and optimized a cell based luciferase reporter assay in 1536 well format for the identification of up-regulators of the Rab9 promoter. This assay presents data on the validation of hits from the primary screen.
The Rab9 promoter is cloned in front of the luciferase reporter gene, therefore […] promoter activation results in luciferase expression. Frozen stock of the Rab9 promoter transfected Huh7 cells were obtained from the laboratory of Dr. Yiannis Ioannou (The Mount Sinai School of Medicine, New York, NY). Cells were propagated and maintained at NCGC in medium containing RPMI-1640 supplemented with 10% FBS, 2mM L-glutamine, and 50ug/ml penicillin/streptomycin. Cells were harvested in and plated for assays in OP-MEM I reduced-serum medium supplemented with 10% FBS. The Amplite luciferase reporter gene assay kit was purchased from ABD Bioquest and prepared/stored according to manufacturers recommendations. qHTS Assay Setup: 1.Dispensed 5ul of Huh7 cells stably expressing Rab9-luciferase at a density of 1500 cells per well 1536-well plates. 2.Incubate cells at 37C, 5% CO2, and 95% humidity for 2 hours. 3.Transferred 23nl per well of compound in DMSO solution. 4.Incubated at 37C, 5% CO2, and 95% humidity for 24 hours. 5.Dispensed 3ul per well of Amplite reagent(ABD Bioquest) per well. 6.Incubate at ambient for 10 minutes. 7.Read using the luminescence protocol on the ViewLux plate reader (Perkin Elmer).
Potency means the concentration at half of the fitted maximal effect.

| SMILES | Potency |
| --- | --- |
| COc1ccc(-c2noc(N3CCCC(C(=O)Nc4ccccc4F)C3)n2)cc1 (stereo not given) | inconclusive: 125 µM [activator, partial curve] |
| COC(=O)c1ccccc1S(=O)(=O)NNC(=O)Nc1ccccc1 | inconclusive: 15.8 µM [activator, partial curve] |
| O=C(CCCn1c(=O)oc2ccccc21)N1CCN(c2ccccn2)CC1 | inconclusive: 79.1 µM [activator, partial curve] |
| CCCCn1c(Nc2ccc(OC)cc2)nc2ccccc21 | inactive |
| Cc1ccc(NC(=O)c2c(O)c3ccccc3n(C)c2=O)nc1 | inconclusive: 125 µM [activator, partial curve] |
| CC(=O)Nc1ccc(NC(=O)COc2ncnc3ccccc23)cc1 | inactive |
| CCC1CCCCN1CCCNC(=O)c1ccc2nc(N3CCCCC3)sc2c1 (stereo not given) | inconclusive: 0.0791 µM [activator, full curve] |
| NCCOc1ccccc1-c1ccccc1 | inactive |
| CCC(C)(C)NC(=O)C(c1ccc(OC)cc1)N(Cc1cccs1)C(=O)CCC(=O)Nc1cc(C)on1 (stereo not given) | inactive |
| O=C(CSc1nnc(-c2ccc([N+](=O)[O-])cc2)o1)Nc1ccccn1 | active: 0.56 µM |
| CCOC(=O)CSc1nc2cc3c(cc2cc1C#N)OCO3 | active: 0.888 µM |
| Cc1nnc2n(c1=O)N=C(c1ccc(Cl)cc1)CS2 | active: 0.888 µM |
| O=C(c1cc2cc(Br)ccc2[nH]1)N1CCc2ccccc21 | inconclusive: 158 µM [activator, partial curve, poor fit] |
| COC(=O)Nc1nc2ccc(Br)cc2s1 | inconclusive: 1.58 µM [activator, full curve] |
| Cc1ccc(NC(=O)COC(=O)C2C3CC4OC(=O)C2C4C3)cc1Cl (stereo not given) | inconclusive: 99.6 µM [activator, partial curve, poor fit] |
| COc1ccc(C2(CNC(=O)/C=C/c3ccco3)CCCC2)cc1OC | inactive |
| COc1ccc(NC(=O)c2cc3ccccc3o/c2=N\NS(=O)(=O)c2ccc(C)cc2)cc1 | inconclusive: 0.705 µM [activator, full curve] |
| O=C(CSc1ncccn1)Nc1cccc2ccccc12 | inconclusive: 79.1 µM [activator, partial curve] |
| FC(F)(F)c1ccc(Nc2nnnc3ccccc23)cc1 | inconclusive: 99.6 µM [activator, partial curve] |
| Cc1ccc(C(=O)c2cn[nH]c2-c2ccccc2O)cc1 | inconclusive: 62.8 µM [activator, partial curve] |

| SMILES | Potency |
| --- | --- |
| CC(C)(C)C(=O)NC(=S)Nc1ccccc1F | inconclusive: 49.9 µM [activator, partial curve] |
| COCC1CCN(C(=O)c2ccc3oc(Cc4ccccc4)nc3c2)C1 (stereo not given) | inconclusive: 125 µM [activator, partial curve, poor fit] |
| Cc1ccc(C(=O)c2cncc(Br)c2)cc1 | inconclusive: 39.7 µM [activator, partial curve] |
| CCOc1cc(C(=O)N=c2sccn2C)ccc1OC(F)F | inconclusive: 79.1 µM [activator, partial curve] |
| CCOc1ccc(CNC(=O)C2CCCN(S(C)(=O)=O)C2)cc1OC (stereo not given) | inactive |
| COCCSc1ncnc2c1oc1nc3c(cc12)COC(C)(C)C3 | inconclusive: 99.6 µM [activator, partial curve] |
| Cc1cc(C)c2c(N)c(C(=O)Nc3ccc([N+](=O)[O-])cc3)sc2n1 | active: 0.499 µM |
| CCCCCCOc1ccc(OC(=O)c2cccnc2)cc1 | inconclusive: 62.8 µM [activator, partial curve] |
| CC(=O)NC(=S)Nc1ccc2oc(-c3cc(F)c(F)cc3Cl)nc2c1 | inconclusive: 0.628 µM [activator, full curve] |
| CCCCc1cc(=O)oc2cc(OCC(=O)N3CCOCC3)ccc12 | inactive |
| O=C(CSc1nnc(-c2csc3c2CCCC3)o1)Nc1ccccc1 | inconclusive: 1.99 µM [activator, partial curve] |
| COc1ccc(-c2nnc(SCC(=O)/C(C#N)=C(\C)N)o2)cc1 | active: 0.315 µM |
| CCOC(=O)c1csc(COc2ccc(OC)cc2)n1 | inconclusive: 0.353 µM [activator, full curve] |
| CCCC(C)NC(=O)c1ccc(OCc2ccc(Cl)cc2)c(OC)c1 (stereo not given) | inconclusive: 125 µM [activator, partial curve, poor fit] |
| CCOc1ccc(S(=O)(=O)NCc2ccccc2)cc1C(N)=O | inactive |
| NC(=O)COC(=O)c1ccc2noc(-c3ccccc3)c2c1 | inconclusive: 25 µM [activator, partial curve] |
| Cc1ccc(C(=O)Nc2ccc(N3CCN(C)CC3)nc2)cc1 | active: 25 µM |
| COC(=O)c1ccccc1NC(=O)c1ccc(-c2ccc(Br)cc2)o1 | inconclusive: 15.8 µM [activator, partial curve] |
| O=C(CSc1nccn1Cc1ccco1)Nc1ccccc1F | inconclusive: 158 µM [activator, partial curve, poor fit] |
| COC(=O)c1ccccc1NC(=O)c1cc(-c2cccs2)on1 | inconclusive: 2.5 µM [activator, full curve] |

Two neighbouring entries already listed, for reference:

| SMILES | Potency |
| --- | --- |
| CCCCCCOc1ccc(OC(=O)c2cccnc2)cc1 | inconclusive: 62.8 µM [activator, partial curve] |
| CC(=O)NC(=S)Nc1ccc2oc(-c3cc(F)c(F)cc3Cl)nc2c1 | inconclusive: 0.628 µM [activator, full curve] |
